Measurements: PMC6199744, “Development of Chemical Proteomics for the Folateome and Analysis of the Kinetoplastid Folateome” (ACS Infectious Diseases, 2018)
The source gives many values for each of these; only a part stands here.

Tested on: L. major lysate proteins
Assay: Multitargeted bead mixture chemoproteomics, single concentration competition, proteome-wide
Assay type: binding
Conditions: for fold change: vehicle control = 1

Nc1nc2[nH]cc(CCc3ccc(C(=O)N[C@@H](CCC(=O)O)C(=O)O)cc3)c2c(=O)[nH]1 [PTX, pemetrexed]
fold change (protein LMJF.18.1510 P-TYPE H -ATPASE, PUTATIVE): 0.92
fold change vs vehicle control (protein LMJF.19.0300 RNA BINDING PROTEIN, PUTATIVE): 0.73
fold change (protein LMJF.19.0750 HY[…], CONSERVED): 1
fold change (protein LMJF.19.0995 4-COUMARATE:COA LIGASE-LIKE PROTEIN): 1.06
fold change (protein LMJF.19.1530 PEPT[…]-LIKE PROTEIN): 1.06
fold change (protein LMJF.20.0100 PHOSPH[…] C, GLYCOSOMAL): 1.02
fold change vs vehicle control (protein LMJF.20.1180 CALPAIN-LIKE CYSTEINE PEPTIDASE, PUTATIVE,CYSTEINE PEPTIDASE, CLAN CA, FAMILY C2, PUTATIVE): 0.98
fold change (protein LMJF.21.0540 LA RNA BINDING PROTEIN, PUTATIVE): 0.97
fold change vs vehicle control (protein LMJF.21.1060 40S RIBOSOMAL PROTEIN S23, PUTATIVE): 1.07
fold change (protein LMJF.21.1090 T-COMPLEX PROTEIN 1, DELTA SUBUNIT, PUTATIVE): 0.97
fold change vs vehicle control (protein LMJF.21.1552 RNA HELICASE, PUTATIVE): 0.93
fold change (protein LMJF.21.1555 HY[…], CONSERVED): 0.95
fold change (protein LMJF.21.1580 HY[…], UNKNOWN FUNCTION): 1.09
fold change (protein LMJF.21.1700 […] 2 SUBUNIT, PUTATIVE): 0.92
fold change (protein LMJF.21.1710 CYTOCHROME C OXIDASE SUBUNIT VI, PUTATIVE): 0.95
fold change (protein LMJF.22.0270 HY[…], CONSERVED): 1.03
fold change (protein LMJF.22.0420 40S RIBOSOMAL PROTEIN S15, PUTATIVE): 1.01
fold change (protein LMJF.22.1540 ALANYL-TRNA SYNTHETASE, PUTATIVE): 0.89
fold change (protein LMJF.22.1630 CCR4 […], PUTATIVE): 0.92
fold change (protein LMJF.23.0110 GDP-MANNOSE PYROPHOSPHORYLASE): 0.88
fold change (protein LMJF.23.0200 ENDORI[…]-PSP (PB5), PUTATIVE): 0.92
fold change (protein LMJF.23.0640 HY[…], CONSERVED): 1.1
fold change (protein LMJF.23.0810 ACTIN INTERACTING PROTEIN-LIKE PROTEIN): 0.84
fold change vs vehicle control (protein LMJF.24.0280 DYNEIN INTERMEDIATE-CHAIN-LIKE PROTEIN): 0.92
fold change (protein LMJF.24.0770 MALIC ENZYME, PUTATIVE): 0.91
fold change (protein LMJF.24.1840 LYSOPHOSPHOLIPASE, PUTATIVE): 0.95
fold change (protein LMJF.25.0120 ELECTRON TRANSFER FLAVOPROTEIN, PUTATIVE): 1.43
fold change (protein LMJF.25.1540 HY[…], CONSERVED (mitochondrial RNA binding complex 1 subunit, putative)): 0.98
fold change (protein LMJF.25.1710 PYRUVATE DEHYDROGENASE E1 BETA SUBUNIT, PUTATIVE): 1.02
fold change (protein LMJF.26.0830 […], PUTATIVE,ASPARTATE--AMMONIA LIGASE, PUTATIVE): 1.04
fold change (protein LMJF.26.1960 HY[…], CONSERVED): 0.92
fold change (protein LMJF.26.2000 HY[…], CONSERVED (methyltransferase domain containing protein, putative)): 0.94
fold change (protein LMJF.27.0130 HY[…], CONSERVED): 0.74
fold change (protein LMJF.27.0880 2-OXOGLUTARATE DEHYDROGENASE SUBUNIT, PUTATIVE): 0.86
fold change (protein LMJF.27.0930 ISOVALERYL-COA DEHYDROGENASE, PUTATIVE): 1.07
fold change vs vehicle control (protein LMJF.27.1300 HY[…], CONSERVED): 0.98
fold change (protein LMJF.27.1310 ARGINYL-TRNA SYNTHETASE, PUTATIVE): 0.98
fold change (protein LMJF.27.2030 BRANCHED-CHAIN AMINO ACID AMINOTRANSFERASE, PUTATIVE): 0.92
fold change (protein LMJF.27.2400 HEAT SHOCK PROTEIN DNAJ, PUTATIVE): 1.03
fold change (protein LMJF.28.0980 P27 PROTEIN, PUTATIVE): 0.99
fold change vs vehicle control (protein LMJF.28.2260 […] PROTEIN, PUTATIVE): 0.92
fold change (protein LMJF.28.2420 2-OXOGLUTARATE DEHYDROGENASE, E2 COMPONENT, DIHYDROLIPOAMIDE SUCCINYLTRANSFERASE, PUTATIVE): 0.99
fold change (protein LMJF.28.2510 ACYL-COA DEHYDROGENASE, PUTATIVE): 1.09
fold change (protein LMJF.28.2680 […] ASSEMBLY PROTEIN-LIKE PROTEIN): 0.88
fold change (protein LMJF.28.2750 ACTIVATED PROTEIN KINASE C RECEPTOR (LACK)): 0.97
fold change (protein LMJF.29.0020 TRANSCRIPTION FACTOR-LIKE PROTEIN): 1
fold change (protein LMJF.29.0820 CYSTEINE PEPTIDASE C (CPC)): 1.01
fold change (protein LMJF.29.2240 AMINOPEPTIDASE, PUTATIVE,METALLO-PEPTIDASE, CLAN MA(E), FAMILY M1): 0.89
fold change vs vehicle control (protein LMJF.30.0120 […] SYNTHASE): 1.05
fold change (protein LMJF.30.0460 ASPARTYL-TRNA SYNTHETASE, PUTATIVE): 1.04
fold change (protein LMJF.30.0630 HISTIDYL-TRNA SYNTHETASE, PUTATIVE): 1.06
fold change (protein LMJF.30.0750 4-METHYL-5(BETA-HYDROXYETHYL)-THIAZOLE MON[…] PROTEIN, PUTATIVE): 0.94
fold change (protein LMJF.30.2330 HY[…], UNKNOWN FUNCTION): 0.96
fold change (protein LMJF.30.2350 SPHINGOSINE 1-PHOSPHATE LYASE): 1.01
fold change (protein LMJF.30.2550 HEAT SHOCK 70-RELATED PROTEIN 1, MIT[…], PUTATIVE): 1.05
fold change (protein LMJF.30.2970 GLYCERALDEHYDE 3-PHOSPHATE DEHYDROGENASE, GLYCOSOMAL): 0.92
fold change (protein LMJF.30.3130 VALYL-TRNA SYNTHETASE, PUTATIVE): 0.85
fold change (protein LMJF.30.3530 HY[…], CONSERVED): 0.95
fold change (protein LMJF.30.3600 ATP SYNTHASE, EPSILON CHAIN, PUTATIVE): 0.9
fold change (protein LMJF.31.0440 CYTOSKELETON-ASSOCIATED PROTEIN CAP5 5, PUTATIVE): 1.01
fold change (protein LMJF.31.1110 HY[…], CONSERVED (emp24/gp25L/p24 family/GOLD, putative)): 0.95
fold change (protein LMJF.31.2280 ADP-RI[…], PUTATIVE): 1.05
fold change (protein LMJF.31.2790 ADP-RI[…], PUTATIVE): 0.97
fold change (protein LMJF.32.0050 PROTEIN TRANSPORT PROTEIN SEC13, PUTATIVE): 0.87
fold change vs vehicle control (protein LMJF.32.0400 ATP-DEPENDENT RNA HELICASE, PUTATIVE): 1.03
